Literature values, collected in patent publication US20100093678A1, “Compositions and methods of the treatment of obesity and osteoporosis” (THE UNIVERSITY OF GEORGIA RESEARCH FOUNDATION, INC, priority 2008, published 2010).
At least one structure is not confirmed: it was looked up by name or label, or the drawing left a doubt.

Conditions: after 1.9 years, cited from earlier work

Q: What does the source list for `O=P(O)(O)C(O)(Cn1ccnc1)P(=O)(O)O` [zoledronic acid]?
A: mortality benefit: 28%; died of any cause (study group): 9.6%
